Experimental data published in the supplement of paper PMC10849652.
This is one part of the list. Residues, ends and D or L forms follow the SMILES beside them. *: point of attachment. Cbz = O=C(OCc1ccccc1)*

The chains behind the UniProt entries cited, without tags or fusion partners. Where a name states a change or a piece, a line headed by the entry shows the natural chain unless it says otherwise.
UniProt P53367: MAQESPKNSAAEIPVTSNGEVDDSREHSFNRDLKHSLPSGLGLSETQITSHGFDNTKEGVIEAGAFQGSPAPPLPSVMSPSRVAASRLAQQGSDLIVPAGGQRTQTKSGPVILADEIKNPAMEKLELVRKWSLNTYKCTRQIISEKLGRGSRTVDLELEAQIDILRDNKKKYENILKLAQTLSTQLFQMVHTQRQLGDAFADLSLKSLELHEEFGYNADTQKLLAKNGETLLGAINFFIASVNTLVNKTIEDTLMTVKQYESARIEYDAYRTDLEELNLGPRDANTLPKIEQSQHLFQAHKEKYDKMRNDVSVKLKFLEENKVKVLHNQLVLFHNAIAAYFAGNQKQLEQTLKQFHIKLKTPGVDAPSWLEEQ
UniProt Q96BI3, whole entry, looked up: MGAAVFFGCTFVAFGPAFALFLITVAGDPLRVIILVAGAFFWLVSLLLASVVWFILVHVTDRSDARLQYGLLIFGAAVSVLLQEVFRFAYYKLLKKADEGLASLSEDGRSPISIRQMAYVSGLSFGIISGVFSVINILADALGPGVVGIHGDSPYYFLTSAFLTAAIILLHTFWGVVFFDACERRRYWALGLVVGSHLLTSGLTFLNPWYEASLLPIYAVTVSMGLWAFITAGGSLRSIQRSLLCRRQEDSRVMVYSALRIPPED
UniProt Q6ZSZ5: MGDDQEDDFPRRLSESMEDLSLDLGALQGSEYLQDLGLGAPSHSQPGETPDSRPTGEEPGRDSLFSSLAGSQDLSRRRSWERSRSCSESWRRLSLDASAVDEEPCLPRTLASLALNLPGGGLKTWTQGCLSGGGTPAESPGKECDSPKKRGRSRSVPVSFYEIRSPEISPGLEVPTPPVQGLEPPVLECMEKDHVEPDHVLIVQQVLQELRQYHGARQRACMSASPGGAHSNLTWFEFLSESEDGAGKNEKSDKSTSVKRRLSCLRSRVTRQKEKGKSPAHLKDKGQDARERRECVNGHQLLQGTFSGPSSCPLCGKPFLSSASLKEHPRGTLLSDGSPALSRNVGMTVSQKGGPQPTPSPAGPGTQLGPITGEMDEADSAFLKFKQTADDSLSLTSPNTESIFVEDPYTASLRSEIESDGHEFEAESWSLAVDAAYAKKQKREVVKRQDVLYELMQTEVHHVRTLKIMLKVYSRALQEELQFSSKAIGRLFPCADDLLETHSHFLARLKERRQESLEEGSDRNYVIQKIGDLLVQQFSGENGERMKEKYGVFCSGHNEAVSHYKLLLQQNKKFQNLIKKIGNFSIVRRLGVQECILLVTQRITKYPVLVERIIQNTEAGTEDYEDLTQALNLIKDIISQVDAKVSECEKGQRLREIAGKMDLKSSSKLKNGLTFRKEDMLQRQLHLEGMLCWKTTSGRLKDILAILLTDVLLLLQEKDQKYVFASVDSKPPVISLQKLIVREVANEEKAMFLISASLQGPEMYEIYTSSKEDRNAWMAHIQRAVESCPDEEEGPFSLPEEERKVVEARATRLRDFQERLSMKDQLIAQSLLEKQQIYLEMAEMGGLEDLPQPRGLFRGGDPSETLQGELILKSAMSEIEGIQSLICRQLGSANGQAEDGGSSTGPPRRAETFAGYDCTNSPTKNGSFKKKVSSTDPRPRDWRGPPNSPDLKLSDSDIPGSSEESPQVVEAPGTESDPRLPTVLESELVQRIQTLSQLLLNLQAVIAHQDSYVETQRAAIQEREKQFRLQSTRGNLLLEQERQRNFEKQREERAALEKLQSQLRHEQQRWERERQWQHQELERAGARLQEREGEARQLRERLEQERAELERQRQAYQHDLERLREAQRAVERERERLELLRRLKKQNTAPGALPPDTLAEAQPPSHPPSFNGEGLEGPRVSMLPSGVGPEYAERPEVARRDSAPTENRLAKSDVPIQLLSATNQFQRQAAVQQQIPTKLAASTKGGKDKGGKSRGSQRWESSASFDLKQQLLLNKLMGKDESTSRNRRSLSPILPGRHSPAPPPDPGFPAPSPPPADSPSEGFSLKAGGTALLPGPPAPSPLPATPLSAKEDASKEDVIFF
UniProt Q9Y587: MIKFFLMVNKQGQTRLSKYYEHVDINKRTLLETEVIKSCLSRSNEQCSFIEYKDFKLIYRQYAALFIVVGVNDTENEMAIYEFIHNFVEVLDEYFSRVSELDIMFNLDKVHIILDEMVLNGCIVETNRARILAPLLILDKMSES
UniProt Q6UB99: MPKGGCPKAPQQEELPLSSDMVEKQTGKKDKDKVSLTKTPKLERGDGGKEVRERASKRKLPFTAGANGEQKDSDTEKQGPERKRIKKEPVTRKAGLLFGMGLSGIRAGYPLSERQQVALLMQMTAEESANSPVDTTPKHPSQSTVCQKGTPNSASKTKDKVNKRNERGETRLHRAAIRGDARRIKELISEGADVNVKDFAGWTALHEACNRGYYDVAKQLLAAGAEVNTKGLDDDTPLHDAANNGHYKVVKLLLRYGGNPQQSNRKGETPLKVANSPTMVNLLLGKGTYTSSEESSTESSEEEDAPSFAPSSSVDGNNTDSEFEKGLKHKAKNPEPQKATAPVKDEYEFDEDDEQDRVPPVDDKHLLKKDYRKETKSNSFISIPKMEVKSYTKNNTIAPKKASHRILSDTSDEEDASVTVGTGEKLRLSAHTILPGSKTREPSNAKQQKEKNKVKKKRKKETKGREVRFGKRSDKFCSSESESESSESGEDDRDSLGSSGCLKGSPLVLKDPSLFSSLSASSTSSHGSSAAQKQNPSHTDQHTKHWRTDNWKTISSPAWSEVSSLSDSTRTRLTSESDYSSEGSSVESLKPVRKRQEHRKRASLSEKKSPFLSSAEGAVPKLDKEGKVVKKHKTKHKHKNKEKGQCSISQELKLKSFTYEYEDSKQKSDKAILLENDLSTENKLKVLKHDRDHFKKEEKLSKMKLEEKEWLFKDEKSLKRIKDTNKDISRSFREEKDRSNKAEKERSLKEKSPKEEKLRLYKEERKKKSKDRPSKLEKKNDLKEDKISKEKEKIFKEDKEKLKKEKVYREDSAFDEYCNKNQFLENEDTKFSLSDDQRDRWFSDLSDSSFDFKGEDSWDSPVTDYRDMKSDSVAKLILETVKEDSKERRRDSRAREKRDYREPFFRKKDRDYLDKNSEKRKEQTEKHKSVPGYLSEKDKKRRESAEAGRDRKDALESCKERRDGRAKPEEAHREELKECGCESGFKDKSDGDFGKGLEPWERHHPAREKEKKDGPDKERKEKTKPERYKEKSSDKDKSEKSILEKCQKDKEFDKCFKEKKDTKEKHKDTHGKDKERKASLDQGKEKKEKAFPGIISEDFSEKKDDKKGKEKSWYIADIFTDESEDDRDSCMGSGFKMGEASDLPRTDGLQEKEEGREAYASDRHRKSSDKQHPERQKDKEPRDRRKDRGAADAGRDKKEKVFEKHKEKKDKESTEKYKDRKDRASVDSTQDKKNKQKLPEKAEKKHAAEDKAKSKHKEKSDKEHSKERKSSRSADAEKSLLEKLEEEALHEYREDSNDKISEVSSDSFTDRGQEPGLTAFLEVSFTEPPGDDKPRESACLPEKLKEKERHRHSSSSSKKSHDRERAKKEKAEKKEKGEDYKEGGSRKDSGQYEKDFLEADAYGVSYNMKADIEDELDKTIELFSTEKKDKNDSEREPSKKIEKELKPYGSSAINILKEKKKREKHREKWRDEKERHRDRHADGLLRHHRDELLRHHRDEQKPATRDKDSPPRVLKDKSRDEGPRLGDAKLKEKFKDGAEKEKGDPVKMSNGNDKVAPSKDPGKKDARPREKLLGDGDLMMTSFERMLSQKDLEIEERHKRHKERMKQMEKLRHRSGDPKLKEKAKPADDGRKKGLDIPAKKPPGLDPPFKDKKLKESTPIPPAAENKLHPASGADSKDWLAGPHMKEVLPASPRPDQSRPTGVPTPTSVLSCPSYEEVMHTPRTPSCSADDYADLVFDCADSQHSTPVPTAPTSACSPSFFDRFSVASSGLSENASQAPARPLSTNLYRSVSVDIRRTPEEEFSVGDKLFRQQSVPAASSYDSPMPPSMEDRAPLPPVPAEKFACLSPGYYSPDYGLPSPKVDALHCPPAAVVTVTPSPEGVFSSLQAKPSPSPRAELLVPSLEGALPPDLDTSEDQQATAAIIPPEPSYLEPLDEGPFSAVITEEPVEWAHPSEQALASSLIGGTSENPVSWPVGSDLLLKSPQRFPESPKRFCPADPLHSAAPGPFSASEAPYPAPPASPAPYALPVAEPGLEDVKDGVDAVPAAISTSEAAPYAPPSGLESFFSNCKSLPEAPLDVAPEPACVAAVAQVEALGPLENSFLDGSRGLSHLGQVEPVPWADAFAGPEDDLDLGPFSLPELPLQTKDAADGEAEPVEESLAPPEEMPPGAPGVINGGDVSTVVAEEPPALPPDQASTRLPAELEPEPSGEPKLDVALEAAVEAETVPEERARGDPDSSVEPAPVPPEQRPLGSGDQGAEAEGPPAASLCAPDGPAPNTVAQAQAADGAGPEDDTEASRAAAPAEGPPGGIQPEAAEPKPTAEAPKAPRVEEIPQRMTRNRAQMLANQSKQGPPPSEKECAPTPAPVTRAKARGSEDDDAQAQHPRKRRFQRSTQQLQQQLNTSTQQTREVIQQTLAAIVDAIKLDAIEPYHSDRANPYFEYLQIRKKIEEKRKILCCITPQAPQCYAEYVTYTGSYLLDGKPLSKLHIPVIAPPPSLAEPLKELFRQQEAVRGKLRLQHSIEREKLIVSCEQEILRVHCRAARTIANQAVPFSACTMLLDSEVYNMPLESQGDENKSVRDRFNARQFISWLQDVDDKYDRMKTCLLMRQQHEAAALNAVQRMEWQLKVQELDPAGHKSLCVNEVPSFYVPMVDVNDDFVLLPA
UniProt Q86W74: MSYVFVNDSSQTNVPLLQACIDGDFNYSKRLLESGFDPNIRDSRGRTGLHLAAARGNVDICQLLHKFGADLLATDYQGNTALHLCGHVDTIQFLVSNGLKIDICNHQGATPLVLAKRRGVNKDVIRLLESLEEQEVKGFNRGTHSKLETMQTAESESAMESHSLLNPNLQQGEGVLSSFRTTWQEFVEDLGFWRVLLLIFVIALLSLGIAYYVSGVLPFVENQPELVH
UniProt P05067, whole entry, looked up: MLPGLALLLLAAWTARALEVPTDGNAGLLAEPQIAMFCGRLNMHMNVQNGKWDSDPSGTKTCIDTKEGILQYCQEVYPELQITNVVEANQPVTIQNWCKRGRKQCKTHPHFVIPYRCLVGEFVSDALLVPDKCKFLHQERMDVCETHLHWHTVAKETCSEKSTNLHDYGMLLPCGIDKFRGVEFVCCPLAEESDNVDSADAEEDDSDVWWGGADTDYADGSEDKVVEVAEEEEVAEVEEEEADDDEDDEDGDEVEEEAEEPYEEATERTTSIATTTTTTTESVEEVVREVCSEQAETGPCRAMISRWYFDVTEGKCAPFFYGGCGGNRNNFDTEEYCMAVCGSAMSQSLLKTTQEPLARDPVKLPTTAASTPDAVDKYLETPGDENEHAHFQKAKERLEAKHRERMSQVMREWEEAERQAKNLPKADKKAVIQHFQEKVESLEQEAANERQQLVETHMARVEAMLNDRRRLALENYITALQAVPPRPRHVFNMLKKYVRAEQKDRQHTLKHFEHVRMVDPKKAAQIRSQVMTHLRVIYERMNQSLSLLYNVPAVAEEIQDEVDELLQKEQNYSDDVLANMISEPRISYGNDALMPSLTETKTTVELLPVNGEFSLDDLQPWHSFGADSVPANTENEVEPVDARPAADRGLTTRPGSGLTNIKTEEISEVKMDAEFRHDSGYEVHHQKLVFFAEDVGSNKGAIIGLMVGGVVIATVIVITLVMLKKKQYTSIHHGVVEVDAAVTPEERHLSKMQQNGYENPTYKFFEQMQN
UniProt Q9Y6B7: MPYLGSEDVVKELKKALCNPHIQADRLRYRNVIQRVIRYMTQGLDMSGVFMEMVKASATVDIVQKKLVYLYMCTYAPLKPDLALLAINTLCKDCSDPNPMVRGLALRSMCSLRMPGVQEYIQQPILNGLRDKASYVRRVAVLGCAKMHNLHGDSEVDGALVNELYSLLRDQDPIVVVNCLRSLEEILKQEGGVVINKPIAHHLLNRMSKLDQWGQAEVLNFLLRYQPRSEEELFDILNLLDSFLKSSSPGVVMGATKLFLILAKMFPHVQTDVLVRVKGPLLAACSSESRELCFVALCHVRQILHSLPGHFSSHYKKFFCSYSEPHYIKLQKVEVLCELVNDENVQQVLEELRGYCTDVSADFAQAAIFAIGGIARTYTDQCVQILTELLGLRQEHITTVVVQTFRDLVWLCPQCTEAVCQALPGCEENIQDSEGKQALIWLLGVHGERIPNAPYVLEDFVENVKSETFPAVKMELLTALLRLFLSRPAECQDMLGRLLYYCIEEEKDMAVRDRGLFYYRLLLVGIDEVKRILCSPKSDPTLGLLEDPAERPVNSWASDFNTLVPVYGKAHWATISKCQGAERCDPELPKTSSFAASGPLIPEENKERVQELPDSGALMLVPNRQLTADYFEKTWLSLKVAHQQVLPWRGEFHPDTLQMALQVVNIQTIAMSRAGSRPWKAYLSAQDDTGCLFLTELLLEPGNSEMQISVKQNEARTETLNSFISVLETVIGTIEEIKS

Assays:
Test in all cases: log2 fold change, soluble protein after heating vs DMSO (PISA); higher = thermal stabilisation; K562 cells, 10 uM, 30 min; active = over 0.2 and 3.5 SD of the protein, either way, in both replicates (recomputed)
erlotinib = compound: C#Cc1cccc(Nc2ncnc3cc(OCCOC)c(OCCOC)cc23)c1 [erlotinib]
Method in brief: (§1)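 Thermal stability values are relative to control samples and come from duplicates. They are expressed as log2 fold changes. For measurement, K562 cells (2×10^6 cells/mL) received 10 μM compound for 30 min, and aliquots were heated for 3 min over 48°C-58°C, pooled, and extracted at 4°C in PBS with 0.5% NP-40. Soluble protein, the supernatant after 21,000xg for 90 min, was quantified by TMTpro 16plex LC-MS/MS with equalised channel sums.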

[1] = compound: C1=CC(=C(C=C1Cl)C2=NC3=NC=CN=C3C(=N2)NC4=CC=NC=C4)F
Method in brief: as §1

[2] = compound: C1=CC(=CC=C1C2=NC3=C(N2)C=C(C=C3)C(=O)N)OC4=CC=C(C=C4)Cl
Method in brief: as §1

[3] = compound: C1=CC2=NC=CN=C2C=C1/C=C/3\C(=O)NC(=O)S3
Method in brief: as §1

IRAK-1-4 Inhibitor I = compound: C1COCCN1CCN2C3=CC=CC=C3N=C2NC(=O)C4=CC(=CC=C4)[N+](=O)[O-] [IRAK-1-4 Inhibitor I]
Method in brief: as §1

ibrutinib = compound: C=CC(=O)N1CCC[C@@H](n2nc(-c3ccc(Oc4ccccc4)cc3)c3c(N)ncnc32)C1 [ibrutinib]
Method in brief: as §1

[4] = compound: CC(C)(O)CC(=O)NCCn1ccc2ncnc(Nc3ccc(Oc4cccc(C(F)(F)F)c4)c(Cl)c3)c21
Method in brief: as §1

[5] = compound: CC(C)C1=C2N=C(C=C(N2N=C1)NCC3=CC=CC=C3)NCCCCCCN
Method in brief: as §1

pinometostat = compound: CC(C)N(C[C@H]1O[C@@H](n2cnc3c(N)ncnc32)[C@H](O)[C@@H]1O)[C@H]1C[C@@H](CCc2nc3cc(C(C)(C)C)ccc3[nH]2)C1 [pinometostat]
Method in brief: as §1

[6] = compound: C/C(=N\NC(=O)C1=CC(=CC=C1)S(=O)(=O)N2CCOCC2)/C3=C(C=CC(=C3)Cl)O
Method in brief: as §1

[7] = compound: C1=CC2=C(C=CC(=C2)/C=C\3/C(=O)NC(=NCC4=CC=CS4)S3)N=C1
Method in brief: as §1

[8] = compound: C1=CC=C2C(=C1)C3=NNC4=CC=CC(=C43)C2=O
Method in brief: as §1

[9] = compound: C1CCN(C1)C(=O)NC2=CC=CC(=C2)NC3=NC=C(C(=N3)NCCC4=CN=CN4)Br
Method in brief: as §1

[10] = compound: C1CN(CCC1(CC2=CC=C(C=C2)Cl)N)C3=NC=NC4=C3C=CN4
Method in brief: as §1

[11] = compound: CC(=O)c1cnc2ccc(-c3cc(Cl)c(O)c(Cl)c3)nc2c1N[C@H]1CC[C@H](CN(C)C)CC1
Method in brief: as §1

[12] = compound: CC1=C(C2=C(C=C1)C(=O)C3=CC=CC=C3N2CCCN)C
Method in brief: as §1

[13] = compound: C1=CC=C(C=C1)C2=NC(=C(N2)C3=CC=NC=C3)C4=CC(=C(C=C4)Cl)O
Method in brief: as §1

ralimetinib = compound: CC(C)(C)Cn1c(N)nc2ccc(-c3[nH]c(C(C)(C)C)nc3-c3ccc(F)cc3)nc21 [ralimetinib]
Method in brief: as §1

[14] = compound: CC(C)C[C@@H](C=O)NC(=O)[C@H](CC(C)C)NC(=O)[C@H](CC(C)C)NC(=O)OCc1ccccc1
Method in brief: as §1

[15] = compound: CC1=C(C(CC(=O)N1)C2=CC=C(C=C2)C(F)(F)F)C(=O)NC3=C(C=C4C(=C3)C=NN4)F
Method in brief: as §1

Measured: log2 fold change

ARFIP1 isoform 2 (UniProt P53367)
inactive: erlotinib 0.106 | [1] -0.064 | [2] -0.051 | [3] -0.06 | IRAK-1-4 Inhibitor I -0.051 | ibrutinib -0.055 | [4] -0.186 | [5] -0.048 | pinometostat 0.043

APH1A (UniProt Q96BI3)
inactive: erlotinib 0 | [6] -0.046 | [2] 0.052 | [7] 0.073 | [3] 0.048 | [8] -0.09 | [9] -0.188 | [10] 0.071 | IRAK-1-4 Inhibitor I 0.021 | ibrutinib 0.036 | [11] -0.076 | [5] -0.047 | pinometostat -0.056 | [12] -0.03

ARHGEF12 (UniProt Q9NZN5)
inactive: erlotinib 0.012 | [6] 0.101 | [1] -0.257 | [2] 0.051 | [7] -0.219 | [3] 0.11 | [13] -0.019 | [8] -0.021 | [9] -0.017 | [10] -0.109 | IRAK-1-4 Inhibitor I -0.148 | ibrutinib 0.214 | [11] 0.037 | ralimetinib 0.119 | [4] 0.083 | [5] -0.053 | [14] -0.032 | pinometostat 0.193 | [12] -0.001

ANPEP (UniProt P15144)
inactive: erlotinib 0.045 | [6] -0.068 | [2] 0.089 | [7] 0.11 | [13] 0.101 | [8] -0.042 | [9] -0.01 | [10] -0.064 | IRAK-1-4 Inhibitor I -0.032 | [11] -0.376 | ralimetinib 0.005 | [5] -0.048 | [14] -0.133 | pinometostat -0.009 | [15] 0.028 | [12] 0.085

ARHGEF18 (UniProt Q6ZSZ5)
inactive: erlotinib 0.121 | [6] 0.002 | [1] 0.06 | [2] -0.089 | [7] 0.064 | [3] -0.013 | [13] 0.069 | [8] 0.073 | [9] -0.066 | [10] -0.14 | ibrutinib -0.104 | [11] -0.047 | ralimetinib 0.27 | [4] 0.002 | [5] -0.285 | [14] 0.207 | [15] 0.249 | [12] 0.041

ANKRD16 (UniProt Q6P6B7)
inactive: erlotinib -0.039 | [1] -0.067 | [2] 0.013 | [3] 0.016 | ibrutinib -0.194 | [4] -0.133 | [5] 0.069

AQR (UniProt O60306)
inactive: erlotinib -0.061 | [6] -0.017 | [1] -0.128 | [2] 0.043 | [7] 0.076 | [13] 0.028 | [8] -0.058 | [9] 0.013 | [10] -0.053 | IRAK-1-4 Inhibitor I -0.006 | [11] -0.014 | ralimetinib 0.034 | [4] -0.026 | [5] -0.068 | [14] 0.045 | pinometostat -0.027 | [12] -0.014

ANK2 (UniProt Q01484)
inactive: erlotinib -0.089 | [6] -0.173 | [2] -0.028 | [7] 0.325 | [3] -0.059 | [13] 0.011 | [8] -0.031 | [9] -0.126 | [10] -0.131 | IRAK-1-4 Inhibitor I -0.069 | ibrutinib -0.024 | [11] -0.058 | ralimetinib -0.029 | [5] -0.178 | [14] 0.08 | pinometostat 0.062
active: [12] 0.423

APAF1 (UniProt O14727)
inactive: erlotinib 0.207 | [6] 0.066 | [1] -0.073 | [2] 0.141 | [7] 0.016 | [13] 0.037 | [8] 0.011 | IRAK-1-4 Inhibitor I 0.001 | [11] -0.153 | ralimetinib -0.07 | [4] -0.08 | [5] -0.156 | [14] 0.135 | pinometostat 0.066

AP4S1 (UniProt Q9Y587)
active: [7] -0.456
inactive: erlotinib -0.014 | [6] -0.013 | [1] -0.015 | [2] 0.078 | [3] 0 | [8] -0.111 | IRAK-1-4 Inhibitor I -0.061 | ibrutinib -0.12 | [11] 0.008 | [4] -0.079 | [5] 0 | pinometostat -0.145

APOL2 (UniProt J3KQL8)
inactive: erlotinib 0.02 | [6] 0.157 | [1] -0.058 | [2] 0.028 | [7] 0.072 | [3] -0.087 | [8] 0.119 | [9] -0.041 | [10] 0.097 | ibrutinib 0.093 | [11] -0.005 | [4] -0.167 | [5] -0.304 | [15] -0.068 | [12] 0.017

ARHGAP4 isoform 2 (UniProt P98171)
inactive: erlotinib 0.042 | [6] -0.338 | [2] 0.033 | [7] 0.121 | [3] -0.209 | [13] -0.016 | [8] -0.061 | [9] -0.117 | [10] 0.015 | ibrutinib 0.026 | [11] -0.051 | ralimetinib 0.161 | [5] -0.067 | [14] -0.005 | [12] 0.062

ANLN (UniProt Q9NQW6)
inactive: erlotinib 0.006 | [1] -0.027 | [2] -0.121 | [3] -0.227 | [13] -0.188 | IRAK-1-4 Inhibitor I 0.054 | ibrutinib 0.24 | ralimetinib 0.211 | [4] 0.038 | [5] -0.417 | [14] 0.034 | pinometostat 0.154 | [15] 0

ANKRD11 (UniProt Q6UB99)
inactive: erlotinib -0.094 | [2] -0.019 | [3] 0.001 | [13] -0.271 | ibrutinib 0.098 | ralimetinib -0.012 | [5] -0.216 | [14] 0.128 | [15] 0.165

APTX (UniProt Q7Z2E3)
inactive: erlotinib 0.065 | [6] -0.025 | [1] -0.078 | [2] 0.072 | [7] 0.119 | [8] -0.079 | IRAK-1-4 Inhibitor I 0.008 | [11] 0.129 | [4] -0.057 | [5] -0.368 | pinometostat -0.038

AP2A1 (UniProt O95782)
active: [8] -0.381 | [9] -0.527
inactive: erlotinib -0.019 | [6] 0.012 | [1] -0.035 | [2] 0.003 | [7] -0.041 | [3] 0.003 | [13] 0.057 | [10] -0.038 | IRAK-1-4 Inhibitor I -0.054 | ibrutinib 0.01 | [11] -0.14 | ralimetinib 0.052 | [4] 0.027 | [5] 0.023 | [14] -0.06 | pinometostat 0 | [12] 0.081

ANKRD46 (UniProt Q86W74)
inactive: erlotinib 0.094 | [6] 0.069 | [1] 0.028 | [2] -0.052 | [7] 0.128 | [3] 0.012 | [13] -0.068 | [8] 0.022 | [9] -0.054 | [10] -0.031 | ibrutinib -0.085 | [11] 0.037 | ralimetinib 0.041 | [4] 0.002 | [5] 0.123 | [14] 0.12 | [15] -0.314 | [12] 0.093

ARF4 (UniProt P18085)
inactive: erlotinib -0.029 | [6] 0.033 | [1] 0.093 | [2] -0.007 | [7] 0.006 | [3] -0.016 | [13] 0.093 | [8] 0.039 | [9] -0.015 | [10] -0.021 | IRAK-1-4 Inhibitor I 0.072 | ibrutinib 0.003 | [11] -0.027 | ralimetinib -0.019 | [4] -0.103 | [5] 0.117 | [14] -0.032 | pinometostat -0.042 | [12] 0.128

APP (UniProt P05067)
inactive: erlotinib 0.092 | [1] -0.21 | [2] -0.029 | [13] -0.05 | [9] -0.15 | [10] -0.025 | ralimetinib -0.042 | [5] 0.094 | [14] 0.174 | [15] -0.105 | [12] -0.128

AREG (UniProt P15514)
inactive: erlotinib -0.296 | [6] -0.022 | [2] 0.001 | [7] -0.117 | [8] -0.083 | IRAK-1-4 Inhibitor I -0.114 | [11] 0.09 | [5] 0.207 | pinometostat 0.049

AP4B1 (UniProt Q9Y6B7)
inactive: erlotinib -0.055 | [6] 0.289 | [2] -0.054 | [7] -0.081 | [3] 0.04 | [8] -0.01 | [9] -0.097 | [10] 0.164 | IRAK-1-4 Inhibitor I -0.205 | ibrutinib -0.008 | [11] 0.018 | [5] -0.192 | pinometostat 0.126 | [15] -0.126 | [12] -0.155

Taken from the results shown (two entries):
AREG (UniProt P15514)
inactive: erlotinib -0.296 | [6] -0.022 | [2] 0.001 | [7] -0.117 | [8] -0.083 | IRAK-1-4 Inhibitor I -0.114 | [11] 0.09 | [5] 0.207 | pinometostat 0.049

AP4B1 (UniProt Q9Y6B7)
inactive: erlotinib -0.055 | [6] 0.289 | [2] -0.054 | [7] -0.081 | [3] 0.04 | [8] -0.01 | [9] -0.097 | [10] 0.164 | IRAK-1-4 Inhibitor I -0.205 | ibrutinib -0.008 | [11] 0.018 | [5] -0.192 | pinometostat 0.126 | [15] -0.126 | [12] -0.155

(cont.)

ANKRD52 (UniProt Q8NB46)
inactive: erlotinib 0.01 | [6] 0.142 | [1] -0.121 | [2] 0.021 | [7] -0.016 | [13] -0.001 | [8] 0.055 | [9] -0.082 | [10] 0.125 | IRAK-1-4 Inhibitor I -0.074 | [11] -0.026 | ralimetinib 0.064 | [4] -0.046 | [5] -0.056 | [14] 0.045 | pinometostat 0.055 | [15] -0.085 | [12] -0.122

APOH (UniProt P02749)
inactive: erlotinib -0.214 | [6] -0.028 | [2] 0.051 | [7] -0.026 | [3] 0.069 | [13] -0.1 | [8] -0.092 | [9] 0.188 | [10] 0.09 | IRAK-1-4 Inhibitor I 0.13 | ibrutinib 0.155 | [11] 0.211 | ralimetinib -0.131 | [5] -0.067 | [14] 0.119 | pinometostat -0.117 | [12] -0.126
